Results are given in words; binding and its absence hold for the method and conditions named. In cells and extracts the contact can be indirect.
Biological target: CAR in extracts of HeLaCx43 cells (human (endogenous in HeLa)) (UniProt P78310)
Assay: co-IP; CAR precipitated by 20 μg IgG of rabbit 80 (anti-CAR) coupled to agarose beads from 7 mg of protein of HeLaCx43 cells solubilized in 1% Chaps/TBS/5% glycerol pH 7.4; blot with anti-Cx43

By UniProt entry, the sequences of proteins in these tests, tags left out. Residues count along the entry.
UniProt P78310, residues 20-365: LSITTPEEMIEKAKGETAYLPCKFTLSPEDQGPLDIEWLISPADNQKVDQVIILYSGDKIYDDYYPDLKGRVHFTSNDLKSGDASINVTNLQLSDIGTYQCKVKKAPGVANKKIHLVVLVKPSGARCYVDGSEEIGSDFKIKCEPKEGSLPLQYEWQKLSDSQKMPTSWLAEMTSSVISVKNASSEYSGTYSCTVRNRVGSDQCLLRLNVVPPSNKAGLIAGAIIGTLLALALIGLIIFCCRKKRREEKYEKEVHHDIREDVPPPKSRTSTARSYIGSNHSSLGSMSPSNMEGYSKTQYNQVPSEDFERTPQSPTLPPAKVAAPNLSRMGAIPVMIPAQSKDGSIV
UniProt P23242: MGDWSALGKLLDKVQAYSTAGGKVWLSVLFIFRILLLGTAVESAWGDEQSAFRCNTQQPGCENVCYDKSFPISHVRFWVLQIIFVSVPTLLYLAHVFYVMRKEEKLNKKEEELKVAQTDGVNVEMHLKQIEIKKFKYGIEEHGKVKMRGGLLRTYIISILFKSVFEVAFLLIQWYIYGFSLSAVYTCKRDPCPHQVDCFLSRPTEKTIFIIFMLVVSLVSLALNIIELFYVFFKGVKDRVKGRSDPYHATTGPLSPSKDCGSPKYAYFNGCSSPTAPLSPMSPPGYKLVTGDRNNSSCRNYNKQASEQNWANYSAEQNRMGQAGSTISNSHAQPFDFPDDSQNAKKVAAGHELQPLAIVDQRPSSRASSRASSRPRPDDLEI

binding: no binding
Substance: connexin43 stably expressed in HeLa cells (from UniProt P23242 1-382)

— article PMC9866089
